{"source": "the supplement of paper PMC8728848", "binders": {"B1": {"name": "BT4246 (Bacteroides thetaiotaomicron), Q89ZX5 (protein)", "chain": "MGSSHHHHHHENLYFQGHMASDYLDVVPPEQPNIDDAMSSPTRALGFLYSCYGGVSTDLPSAYLGEINSTTDEYVLPYSWNTDGYWGAYAFNTASSTNQDWLWGTTYQYIGQCYLFLQKLENAGSDIASDAEKEQWRAECQFLVAYYHFATLRRYGPIPITDSYIPMDTPTSEYNGRFHFDYCVDWIANQLDEAAKVLPANRTVTNEWGRATSTIAKAVKARLLLYAASPLWNGSFPYPNWQNENFETPGYGKALVSNTYDKSKWERALAACQEALTLATTSGDRELYDDDEYYSRQSLNLPFVPGVADVEDNKEFLKNVMKMRYAVSTRESEGNKEIIWGLSNQFDFYSRYPLRILKKSDGTWHAGYSGVSPTLYTFEHFYTANGKLPEKDLDFTPSSEWFESAGISSREDIIKLNVGREPRFYAWMAFDGGDYGTKFAAGSPLKLEMRNSEMHGYNPSLFNRDHSVTGFLTQKFVDPVTEFYTAGGSTSGTSAPTILFRLAELYLNVAECHAALGNTQEAIDALNPVRERAGIPKLTLADITNNMTIKDWVHNERFVELWNEGHRFFDVRRWAEGAKYFGANKREGLNAEVQSPTFEEFNKRTTVDAPYVWENRMYLNPVFYNEVYKNPQMVQAPGY"}}, "assay_in_all_cases": "glycan array binding signal (z-score within array); higher = stronger binding", "conditions_in_all_cases": "glycan notation: IUPAC condensed, linker removed", "key": {"[1]": {"biological_target": "Neu5Ac(a2-8)Neu5Ac(a2-8)Neu5Ac", "method_in_brief": "(§1)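 Glycan array data were curated from 3228 arrays in the Consortium for Functional Glycomics database and kept only where the protein sequence was available. Glycan names were converted to IUPAC-condensed notation, and columns mapping to the same glycan were averaged. The binding signal is a within-array Z-score, averaged across arrays of the same protein sequence at different concentrations or buffers and across linkers. Negative Z-scores can be read as non-binding.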"}, "[2]": {"biological_target": "Neu5Ac(a2-8)Neu5Ac(a2-8)Neu5Ac(a2-3)Gal(b1-4)Glc", "method_in_brief": "as §1"}, "[3]": {"biological_target": "Neu5Ac(a2-8)Neu5Ac(a2-8)Neu5Ac(a2-3)[Gal(b1-3)GalNAc(b1-4)]Gal(b1-4)Glc", "method_in_brief": "as §1"}, "[4]": {"biological_target": "Neu5Ac(a2-8)Neu5Ac(a2-8)Neu5Ac(a2-3)[GalNAc(b1-4)]Gal(b1-4)Glc", "method_in_brief": "as §1"}, "[5]": {"biological_target": "Neu5Ac(a2-8)Neu5Ac(a2-8)Neu5Ac(a2-8)Neu5Ac(a2-3)[GalNAc(b1-4)]Gal(b1-4)Glc", "method_in_brief": "as §1"}, "[6]": {"biological_target": "Neu5Ac(a2-8)Neu5Gc(a2-3)Gal(b1-4)GlcNAc", "method_in_brief": "as §1"}, "[7]": {"biological_target": "Neu5Ac(b2-6)Gal(b1-4)GlcNAc", "method_in_brief": "as §1"}, "Neu5Ac(b2-6)GalNAc": {"biological_target": "Neu5Ac(b2-6)GalNAc", "method_in_brief": "as §1"}, "[8]": {"biological_target": "Neu5Ac9Ac(a2-3)Gal(b1-3)GlcNAc", "method_in_brief": "as §1"}, "[9]": {"biological_target": "Neu5Ac9Ac(a2-3)Gal(b1-4)GlcNAc", "method_in_brief": "as §1"}, "[10]": {"biological_target": "Neu5Ac9Ac(a2-6)Gal(b1-4)GlcNAc", "method_in_brief": "as §1"}, "[11]": {"biological_target": "Neu5Gc(a2-3)Gal(b1-3)GlcNAc", "method_in_brief": "as §1"}, "[12]": {"biological_target": "Neu5Gc(a2-3)Gal(b1-3)[Fuc(a1-4)]GlcNAc", "method_in_brief": "as §1"}, "Neu5Gc(a2-3)Gal(b1-4)Glc": {"biological_target": "Neu5Gc(a2-3)Gal(b1-4)Glc", "method_in_brief": "as §1"}, "[13]": {"biological_target": "Neu5Gc(a2-3)Gal(b1-4)GlcNAc", "method_in_brief": "as §1"}, "[14]": {"biological_target": "Neu5Gc(a2-3)Gal(b1-4)GlcNAc(b1-3)Gal(b1-4)GlcNAc(b1-2)Man(a1-3)[Neu5Gc(a2-3)Gal(b1-4)GlcNAc(b1-3)Gal(b1-4)GlcNAc(b1-2)Man(a1-6)]Man(b1-4)GlcNAc(b1-4)GlcNAc", "method_in_brief": "as §1"}, "[15]": {"biological_target": "Neu5Gc(a2-3)Gal(b1-4)[Fuc(a1-3)]GlcNAc", "method_in_brief": "as §1"}, "[16]": {"biological_target": "Neu5Gc(a2-6)Gal(b1-4)GlcNAc", "method_in_brief": "as §1"}, "Neu5Gc(a2-6)GalNAc": {"biological_target": "Neu5Gc(a2-6)GalNAc", "method_in_brief": "as §1"}, "[17]": {"biological_target": "Neu5Gc(a2-8)Neu5Ac(a2-3)Gal(b1-4)GlcNAc", "method_in_brief": "as §1"}, "[18]": {"biological_target": "Neu5Gc(a2-8)Neu5Gc(a2-3)Gal(b1-4)GlcNAc", "method_in_brief": "as §1"}, "[19]": {"biological_target": "Neu5Gc(a2-8)Neu5Gc(a2-3)Gal(b1-4)GlcNAc(b1-3)Gal(b1-4)GlcNAc", "method_in_brief": "as §1"}, "[20]": {"biological_target": "Neu5Gc(a2-8)Neu5Gc(a2-6)Gal(b1-4)GlcNAc", "method_in_brief": "as §1"}, "[21]": {"biological_target": "Neu5Gc(b2-6)Gal(b1-4)GlcNAc", "method_in_brief": "as §1"}}, "note": "Some of the results follow."}
{"binder": "B1", "values": [{"measurement": "glycan array binding signal (z-score)", "setting": "[1]", "value": 0.853}, {"measurement": "glycan array binding signal (z-score)", "setting": "[2]", "value": 0.149}, {"measurement": "glycan array binding signal (z-score)", "setting": "[3]", "value": -2.07}, {"measurement": "glycan array binding signal (z-score)", "setting": "[4]", "value": 0.348}, {"measurement": "glycan array binding signal (z-score)", "setting": "[5]", "value": 0.565}, {"measurement": "glycan array binding signal (z-score)", "setting": "[6]", "value": -0.408}, {"measurement": "glycan array binding signal (z-score)", "setting": "[7]", "value": -1.7}, {"measurement": "glycan array binding signal (z-score)", "setting": "Neu5Ac(b2-6)GalNAc", "value": -1.18}, {"measurement": "glycan array binding signal (z-score)", "setting": "[8]", "value": -0.322}, {"measurement": "glycan array binding signal (z-score)", "setting": "[9]", "value": 0.618}, {"measurement": "glycan array binding signal (z-score)", "setting": "[10]", "value": -0.498}, {"measurement": "glycan array binding signal (z-score)", "setting": "[11]", "value": -0.076}, {"measurement": "glycan array binding signal (z-score)", "setting": "[12]", "value": 0.355}, {"measurement": "glycan array binding signal (z-score)", "setting": "Neu5Gc(a2-3)Gal(b1-4)Glc", "value": 0.221}, {"measurement": "glycan array binding signal (z-score)", "setting": "[13]", "value": -0.262}, {"measurement": "glycan array binding signal (z-score)", "setting": "[14]", "value": 2.77}, {"measurement": "glycan array binding signal (z-score)", "setting": "[15]", "value": 0.152}, {"measurement": "glycan array binding signal (z-score)", "setting": "[16]", "value": 0.039}, {"measurement": "glycan array binding signal (z-score)", "setting": "Neu5Gc(a2-6)GalNAc", "value": -0.37}, {"measurement": "glycan array binding signal (z-score)", "setting": "[17]", "value": 0.762}, {"measurement": "glycan array binding signal (z-score)", "setting": "[18]", "value": -1.35}, {"measurement": "glycan array binding signal (z-score)", "setting": "[19]", "value": -0.182}, {"measurement": "glycan array binding signal (z-score)", "setting": "[20]", "value": -0.659}, {"measurement": "glycan array binding signal (z-score)", "setting": "[21]", "value": -0.769}]}
